Results published in the supplement of paper PMC12067093, “Discovery and optimisation of a covalent ligand for TRIM25 and its application to targeted protein ubiquitination” (Chemical Science, 2025).
The other results are listed elsewhere or left out.

The chains behind the UniProt entries cited, without tags or fusion partners. Where a name states a change or a piece, a line headed by the entry shows the natural chain unless it says otherwise.
UniProt P04183: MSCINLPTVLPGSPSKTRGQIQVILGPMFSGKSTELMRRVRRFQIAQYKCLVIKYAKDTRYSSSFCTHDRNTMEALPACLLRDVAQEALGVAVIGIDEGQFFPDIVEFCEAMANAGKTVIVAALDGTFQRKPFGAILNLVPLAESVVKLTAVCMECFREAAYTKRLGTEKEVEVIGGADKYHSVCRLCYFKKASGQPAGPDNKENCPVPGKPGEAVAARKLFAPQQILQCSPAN
UniProt Q9Y5J6: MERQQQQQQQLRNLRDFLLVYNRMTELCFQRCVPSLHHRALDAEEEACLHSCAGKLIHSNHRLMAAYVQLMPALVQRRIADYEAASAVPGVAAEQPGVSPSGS
UniProt O43615: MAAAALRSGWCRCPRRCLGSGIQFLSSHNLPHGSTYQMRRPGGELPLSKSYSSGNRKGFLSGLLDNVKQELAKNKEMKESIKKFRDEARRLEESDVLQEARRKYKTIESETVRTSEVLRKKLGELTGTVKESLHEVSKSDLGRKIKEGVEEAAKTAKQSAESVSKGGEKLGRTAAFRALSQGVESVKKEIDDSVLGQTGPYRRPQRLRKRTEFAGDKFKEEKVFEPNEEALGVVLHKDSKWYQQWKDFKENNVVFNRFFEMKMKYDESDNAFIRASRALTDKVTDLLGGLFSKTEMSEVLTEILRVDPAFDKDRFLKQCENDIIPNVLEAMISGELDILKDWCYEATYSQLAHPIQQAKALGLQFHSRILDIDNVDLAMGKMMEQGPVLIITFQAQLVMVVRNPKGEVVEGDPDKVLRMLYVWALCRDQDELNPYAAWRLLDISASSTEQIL
UniProt Q3ZCQ8: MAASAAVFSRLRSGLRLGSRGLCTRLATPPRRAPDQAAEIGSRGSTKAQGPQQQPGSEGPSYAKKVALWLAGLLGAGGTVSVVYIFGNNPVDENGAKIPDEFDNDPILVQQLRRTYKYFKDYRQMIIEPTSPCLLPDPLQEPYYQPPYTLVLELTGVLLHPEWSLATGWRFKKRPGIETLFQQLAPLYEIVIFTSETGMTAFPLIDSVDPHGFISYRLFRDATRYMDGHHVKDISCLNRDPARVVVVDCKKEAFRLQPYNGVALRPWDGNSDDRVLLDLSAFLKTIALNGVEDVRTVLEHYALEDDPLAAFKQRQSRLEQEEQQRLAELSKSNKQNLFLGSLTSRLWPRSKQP
UniProt Q12800: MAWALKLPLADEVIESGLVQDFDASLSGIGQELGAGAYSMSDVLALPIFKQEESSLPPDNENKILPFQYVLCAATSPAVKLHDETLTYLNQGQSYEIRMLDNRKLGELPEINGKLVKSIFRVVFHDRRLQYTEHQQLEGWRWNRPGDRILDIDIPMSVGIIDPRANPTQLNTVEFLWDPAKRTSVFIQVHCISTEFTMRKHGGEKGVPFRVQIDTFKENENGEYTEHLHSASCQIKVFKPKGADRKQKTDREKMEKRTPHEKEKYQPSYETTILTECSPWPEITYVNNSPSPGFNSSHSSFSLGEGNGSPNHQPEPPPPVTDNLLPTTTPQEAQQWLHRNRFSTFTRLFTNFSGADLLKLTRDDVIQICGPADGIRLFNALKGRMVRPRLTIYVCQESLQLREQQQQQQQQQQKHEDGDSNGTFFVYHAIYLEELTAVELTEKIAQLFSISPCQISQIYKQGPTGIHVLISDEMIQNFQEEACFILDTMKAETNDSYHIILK
UniProt Q9Y5J7: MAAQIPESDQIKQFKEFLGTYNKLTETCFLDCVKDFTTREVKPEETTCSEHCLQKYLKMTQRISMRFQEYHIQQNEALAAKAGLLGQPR
UniProt Q5TEJ8: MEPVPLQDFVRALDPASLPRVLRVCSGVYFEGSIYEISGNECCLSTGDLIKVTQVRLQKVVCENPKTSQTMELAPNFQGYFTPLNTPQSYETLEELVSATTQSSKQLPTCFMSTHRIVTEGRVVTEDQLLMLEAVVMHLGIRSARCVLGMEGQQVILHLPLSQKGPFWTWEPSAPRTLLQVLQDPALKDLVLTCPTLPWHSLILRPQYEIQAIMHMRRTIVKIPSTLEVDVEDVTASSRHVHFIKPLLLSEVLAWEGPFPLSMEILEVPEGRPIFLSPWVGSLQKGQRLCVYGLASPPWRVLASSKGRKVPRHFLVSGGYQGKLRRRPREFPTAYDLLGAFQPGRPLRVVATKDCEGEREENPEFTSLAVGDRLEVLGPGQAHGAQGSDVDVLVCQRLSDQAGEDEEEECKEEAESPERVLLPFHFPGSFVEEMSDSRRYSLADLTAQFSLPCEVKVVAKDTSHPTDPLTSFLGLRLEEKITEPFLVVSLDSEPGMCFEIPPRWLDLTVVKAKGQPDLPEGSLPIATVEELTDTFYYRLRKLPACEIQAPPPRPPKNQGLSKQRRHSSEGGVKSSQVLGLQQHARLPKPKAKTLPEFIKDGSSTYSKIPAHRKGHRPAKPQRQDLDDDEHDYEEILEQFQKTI
UniProt Q9UGU0: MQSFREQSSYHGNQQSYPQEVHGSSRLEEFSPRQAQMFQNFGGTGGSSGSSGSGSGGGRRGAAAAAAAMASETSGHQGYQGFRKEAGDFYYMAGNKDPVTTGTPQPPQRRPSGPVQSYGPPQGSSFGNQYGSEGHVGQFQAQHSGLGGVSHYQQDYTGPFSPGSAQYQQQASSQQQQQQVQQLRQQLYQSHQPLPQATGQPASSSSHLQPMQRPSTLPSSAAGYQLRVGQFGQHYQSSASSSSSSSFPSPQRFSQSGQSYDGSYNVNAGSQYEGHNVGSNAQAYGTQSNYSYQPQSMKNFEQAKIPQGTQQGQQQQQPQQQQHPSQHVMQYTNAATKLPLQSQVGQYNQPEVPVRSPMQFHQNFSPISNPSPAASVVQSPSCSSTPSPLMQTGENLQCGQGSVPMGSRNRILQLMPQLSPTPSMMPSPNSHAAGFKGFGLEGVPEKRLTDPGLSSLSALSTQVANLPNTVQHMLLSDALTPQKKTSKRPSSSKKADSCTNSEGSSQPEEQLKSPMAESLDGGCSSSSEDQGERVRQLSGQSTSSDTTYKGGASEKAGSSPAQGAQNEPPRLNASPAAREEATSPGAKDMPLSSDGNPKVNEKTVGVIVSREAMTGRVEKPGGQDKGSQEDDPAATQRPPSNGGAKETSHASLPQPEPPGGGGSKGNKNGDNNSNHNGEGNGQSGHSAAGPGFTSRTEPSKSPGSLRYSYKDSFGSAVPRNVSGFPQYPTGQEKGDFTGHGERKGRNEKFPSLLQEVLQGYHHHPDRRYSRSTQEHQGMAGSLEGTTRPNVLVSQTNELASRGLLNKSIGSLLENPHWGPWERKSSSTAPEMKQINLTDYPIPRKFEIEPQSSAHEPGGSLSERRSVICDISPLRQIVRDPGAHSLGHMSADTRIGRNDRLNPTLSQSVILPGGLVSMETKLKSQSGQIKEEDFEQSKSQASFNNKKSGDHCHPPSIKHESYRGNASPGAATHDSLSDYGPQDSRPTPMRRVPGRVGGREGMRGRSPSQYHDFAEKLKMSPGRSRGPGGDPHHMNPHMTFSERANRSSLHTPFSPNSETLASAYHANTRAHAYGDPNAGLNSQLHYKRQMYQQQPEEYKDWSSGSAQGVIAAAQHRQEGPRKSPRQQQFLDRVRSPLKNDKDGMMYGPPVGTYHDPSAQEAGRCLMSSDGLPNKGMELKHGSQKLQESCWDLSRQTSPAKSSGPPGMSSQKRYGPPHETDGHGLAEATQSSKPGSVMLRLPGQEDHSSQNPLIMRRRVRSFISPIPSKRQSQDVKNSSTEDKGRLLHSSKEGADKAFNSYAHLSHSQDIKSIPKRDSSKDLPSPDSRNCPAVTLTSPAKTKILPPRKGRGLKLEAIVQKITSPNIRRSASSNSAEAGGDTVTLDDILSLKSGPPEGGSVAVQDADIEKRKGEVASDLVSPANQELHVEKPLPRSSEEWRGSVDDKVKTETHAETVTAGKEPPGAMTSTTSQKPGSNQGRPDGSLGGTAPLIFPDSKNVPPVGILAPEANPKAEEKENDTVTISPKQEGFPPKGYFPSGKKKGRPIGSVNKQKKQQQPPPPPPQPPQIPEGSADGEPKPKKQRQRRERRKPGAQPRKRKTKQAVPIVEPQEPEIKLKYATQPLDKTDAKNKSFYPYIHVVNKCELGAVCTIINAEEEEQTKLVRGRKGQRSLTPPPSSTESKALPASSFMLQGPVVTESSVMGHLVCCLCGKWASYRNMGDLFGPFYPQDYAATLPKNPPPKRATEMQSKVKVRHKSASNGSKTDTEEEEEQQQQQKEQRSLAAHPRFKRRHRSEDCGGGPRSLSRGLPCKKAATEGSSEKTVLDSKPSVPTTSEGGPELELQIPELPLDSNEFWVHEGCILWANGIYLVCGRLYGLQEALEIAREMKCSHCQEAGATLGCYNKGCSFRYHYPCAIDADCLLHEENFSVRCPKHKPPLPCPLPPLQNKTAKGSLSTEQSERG
UniProt Q99595: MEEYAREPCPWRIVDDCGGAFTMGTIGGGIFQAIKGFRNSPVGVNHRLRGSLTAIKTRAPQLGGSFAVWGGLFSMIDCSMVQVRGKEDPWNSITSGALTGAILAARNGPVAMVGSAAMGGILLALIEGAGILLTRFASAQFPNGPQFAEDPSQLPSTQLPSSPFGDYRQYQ
UniProt P52888, whole entry, looked up: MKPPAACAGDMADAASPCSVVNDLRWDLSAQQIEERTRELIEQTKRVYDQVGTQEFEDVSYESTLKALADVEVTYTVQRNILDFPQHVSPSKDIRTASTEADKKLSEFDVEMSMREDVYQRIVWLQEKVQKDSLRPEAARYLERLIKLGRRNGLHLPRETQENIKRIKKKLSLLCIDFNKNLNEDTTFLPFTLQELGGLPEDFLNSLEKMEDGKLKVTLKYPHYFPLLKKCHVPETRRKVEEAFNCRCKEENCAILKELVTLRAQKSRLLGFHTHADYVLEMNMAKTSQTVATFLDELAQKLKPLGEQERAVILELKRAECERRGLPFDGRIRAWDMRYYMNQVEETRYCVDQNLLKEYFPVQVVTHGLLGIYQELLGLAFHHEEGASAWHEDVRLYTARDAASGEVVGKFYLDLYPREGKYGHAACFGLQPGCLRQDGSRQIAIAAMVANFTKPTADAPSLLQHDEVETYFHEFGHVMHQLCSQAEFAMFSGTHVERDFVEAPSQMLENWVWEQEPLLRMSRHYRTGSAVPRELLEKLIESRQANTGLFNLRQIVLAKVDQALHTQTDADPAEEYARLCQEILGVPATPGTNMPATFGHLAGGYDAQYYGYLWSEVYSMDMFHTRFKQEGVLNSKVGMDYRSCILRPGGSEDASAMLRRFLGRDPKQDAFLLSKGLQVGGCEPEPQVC
UniProt Q96N21: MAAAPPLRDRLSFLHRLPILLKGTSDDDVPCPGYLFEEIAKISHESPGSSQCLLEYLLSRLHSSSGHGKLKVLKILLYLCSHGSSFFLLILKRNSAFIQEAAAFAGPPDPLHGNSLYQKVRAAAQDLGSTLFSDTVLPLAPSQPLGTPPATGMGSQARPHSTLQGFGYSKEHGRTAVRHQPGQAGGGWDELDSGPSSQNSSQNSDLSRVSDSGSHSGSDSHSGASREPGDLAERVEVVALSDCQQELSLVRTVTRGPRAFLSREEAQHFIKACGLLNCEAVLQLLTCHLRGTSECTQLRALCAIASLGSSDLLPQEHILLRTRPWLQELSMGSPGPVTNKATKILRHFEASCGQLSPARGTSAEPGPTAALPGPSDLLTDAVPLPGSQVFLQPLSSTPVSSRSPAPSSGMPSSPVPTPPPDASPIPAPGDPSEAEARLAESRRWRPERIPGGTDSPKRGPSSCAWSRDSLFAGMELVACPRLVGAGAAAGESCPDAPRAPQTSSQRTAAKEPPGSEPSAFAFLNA
UniProt Q96RS0: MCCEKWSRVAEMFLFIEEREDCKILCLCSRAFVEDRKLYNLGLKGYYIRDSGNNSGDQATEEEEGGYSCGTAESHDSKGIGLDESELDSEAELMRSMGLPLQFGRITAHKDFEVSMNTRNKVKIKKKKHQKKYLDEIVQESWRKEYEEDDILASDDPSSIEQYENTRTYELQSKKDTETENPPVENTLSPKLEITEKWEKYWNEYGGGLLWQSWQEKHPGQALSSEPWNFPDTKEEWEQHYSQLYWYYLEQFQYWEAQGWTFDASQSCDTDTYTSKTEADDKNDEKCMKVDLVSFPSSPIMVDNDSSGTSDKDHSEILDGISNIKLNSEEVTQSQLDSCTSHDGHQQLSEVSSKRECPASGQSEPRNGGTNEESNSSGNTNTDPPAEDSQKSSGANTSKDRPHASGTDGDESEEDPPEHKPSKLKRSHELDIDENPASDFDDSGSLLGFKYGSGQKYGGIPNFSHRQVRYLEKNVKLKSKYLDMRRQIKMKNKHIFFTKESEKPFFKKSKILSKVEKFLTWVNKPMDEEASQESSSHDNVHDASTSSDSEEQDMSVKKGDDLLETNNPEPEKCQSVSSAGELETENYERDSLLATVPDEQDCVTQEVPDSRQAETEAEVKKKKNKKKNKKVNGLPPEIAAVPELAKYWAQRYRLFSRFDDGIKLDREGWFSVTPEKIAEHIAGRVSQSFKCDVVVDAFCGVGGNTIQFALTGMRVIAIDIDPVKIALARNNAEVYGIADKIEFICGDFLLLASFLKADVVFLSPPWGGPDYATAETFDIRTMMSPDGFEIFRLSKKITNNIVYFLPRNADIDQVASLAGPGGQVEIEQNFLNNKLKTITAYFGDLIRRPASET

compound: CC1Cc2ccccc2N1C(=O)C1CCCN(C1)C(=O)CCl (mixture of isomers) [TRIM25 ligand 11 (diastereomer mixture)]; assay: probe-labelled cysteine peptide fold change vs DMSO (competition) (log2 fold change); higher = less target engagement (more negative = stronger competition); conditions: 10 µM; THP-1; incubation time: 4 h
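Further: competitive chemoproteomic profiling in live THP-1 cells with an iodoacetamide desthiobiotin (IA-DTB) probe, comparing probe-labelled peptide intensities in compound-treated cells against DMSO-treated controls.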

| Target | probe-labelled cysteine peptide fold change |
| --- | --- |
| THOC1_Q96FV9_226_HTEDREEGMDVEEGEMGDEEAPTTCSIPIDYNLYR (UniProt Q96FV9) | 0.0792 |
| TKT_P29401_206_RCEAFGWHAIIVDGHSVEELCK (UniProt P29401) | -0.1 |
| TK1_P04183_185_YHSVCR (UniProt P04183) | -0.118 |
| THBD_P07204_265_CQCPAGAALQADGR (UniProt P07204) | -0.113 |
| TIMP3_P35625_184_HYACIR (UniProt P35625) | 0.00106 |
| TICRR_Q7Z2Z1_160_EAEAALGGLVNAVFLLAPCPHSQR (UniProt Q7Z2Z1) | -0.414 |
| TFIP11_Q9UBB9_383_VLEMVEECER (UniProt Q9UBB9) | 0.0652 |
| THBS1_P07996_599_EVPDACFNHNGEHR (UniProt P07996) | 0.515 |
| TIGAR_Q9NQ88_161_EQFSQGSPSNCLETSLAEIFPLGK (UniProt Q9NQ88) | -0.0683 |
| THUMPD1_Q9NXG2_31_RCDAGGPR (UniProt Q9NXG2) | -0.5 |
| TIMM10B_Q9Y5J6_48+52_ALDAEEEACLHSCAGK (UniProt Q9Y5J6) | 0.041 |
| TDP1_Q9NUW8_135_TENHGAPACHR (UniProt Q9NUW8) | -0.0251 |
| TIMM44_O43615_343_DWCYEATYSQLAHPIQQAK (UniProt O43615) | 0.0094 |
| TES_Q9UGI8_412_FMPVEGMVFCSVECK (UniProt Q9UGI8) | 0.107 |
| THTPA_Q9BU02_66_CPGAAGVLGPHTEYK (UniProt Q9BU02) | -0.0203 |
| TIGAR_Q9NQ88_256_EVKPTVQCICMNLQDHLNGLTETR (UniProt Q9NQ88) | 0.0239 |
| TDRD7_Q8NHU6_103_QVNCQMR (UniProt Q8NHU6) | -0.127 |
| TIMM50_Q3ZCQ8_236_DISCLNRDPAR (UniProt Q3ZCQ8) | -0.111 |
| TELO2_Q9Y4R8_30_EAIHALSSSEDGGHIFCTLESLK (UniProt Q9Y4R8) | 0.156 |

| Target | probe-labelled cysteine peptide fold change |
| --- | --- |
| TIFA_Q96CG3_56_NSNICHYTFQDK (UniProt Q96CG3) | 0.0984 |
| TFCP2_Q12800_453_IAQLFSISPCQISQIYK (UniProt Q12800) | 0.205 |
| TKT_P29401_42_ISSIQATTAAGSGHPTSCCSAAEIMAVLFFHTMR (UniProt P29401) | -0.12 |
| TIMM9_Q9Y5J7_52_EVKPEETTCSEHCLQK (UniProt Q9Y5J7) | 0.0866 |
| THBD_P07204_175_ADGFLCEFHFPATCRPLAVEPGAAAAAVSITYGTPFAAR (UniProt P07204) | 0.126 |
| THEMIS2_Q5TEJ8_410_LSDQAGEDEEEECKEEAESPER (UniProt Q5TEJ8) | 0.122 |
| TDP2_O95551_273_CGGLPNNIVDVWEFLGK (UniProt O95551) | 0.029 |
| TCF20_Q9UGU0_1918_YHYPCAIDADCLLHEENFSVR (UniProt Q9UGU0) | 0.02 |
| TIMM17A_Q99595_17_IVDDCGGAFTMGTIGGGIFQAIK (UniProt Q99595) | -0.05 |
| THOP1_P52888_175_KLSLLCIDFNK (UniProt P52888) | -0.13 |
| TFIP11_Q9UBB9_383_VLEMVEECERR (UniProt Q9UBB9) | -0.151 |
| TGFBR1_P36897_347_NGTCCIADLGLAVR (UniProt P36897) | -0.0428 |
| THUMPD3_Q9BV44_2_CDIEEATNQLLDVNLHENQK (UniProt Q9BV44) | -0.0426 |
| THOC2_Q8NI27_853_YITSCEMVMAPVHEAVVSLHVSK (UniProt Q8NI27) | -0.013 |
| TLE4_Q04727_32_FTISESCDR (UniProt Q04727) | 0.114 |
| TLDC1_Q6P9B6_310_HVFGGFASCSWEVKPQFQGDNR (UniProt Q6P9B6) | 0.2 |
| THOP1_P52888_644_SCILRPGGSEDASAMLR (UniProt P52888) | 0.0607 |
| TEPSIN_Q96N21_463_RGPSSCAWSR (UniProt Q96N21) | -0.0656 |
| TGS1_Q96RS0_28_ILCLCSR (UniProt Q96RS0) | -0.0199 |

same assay, conditions: 50 µM; THP-1; incubation time: 4 h

| Target | probe-labelled cysteine peptide fold change |
| --- | --- |
| THOC1_Q96FV9_226_HTEDREEGMDVEEGEMGDEEAPTTCSIPIDYNLYR (UniProt Q96FV9) | -0.248 |
| TKT_P29401_206_RCEAFGWHAIIVDGHSVEELCK (UniProt P29401) | -0.026 |
| TK1_P04183_185_YHSVCR (UniProt P04183) | 0.164 |
| THBD_P07204_265_CQCPAGAALQADGR (UniProt P07204) | 0.0933 |
| TIMP3_P35625_184_HYACIR (UniProt P35625) | 0.0197 |
| TICRR_Q7Z2Z1_160_EAEAALGGLVNAVFLLAPCPHSQR (UniProt Q7Z2Z1) | -0.15 |
| TFIP11_Q9UBB9_383_VLEMVEECER (UniProt Q9UBB9) | 0.124 |
| THBS1_P07996_599_EVPDACFNHNGEHR (UniProt P07996) | 0.181 |
| TIGAR_Q9NQ88_161_EQFSQGSPSNCLETSLAEIFPLGK (UniProt Q9NQ88) | -0.214 |
| THUMPD1_Q9NXG2_31_RCDAGGPR (UniProt Q9NXG2) | 0.0804 |
| TIMM10B_Q9Y5J6_48+52_ALDAEEEACLHSCAGK (UniProt Q9Y5J6) | 0.211 |
| TDP1_Q9NUW8_135_TENHGAPACHR (UniProt Q9NUW8) | -0.116 |
| TIMM44_O43615_343_DWCYEATYSQLAHPIQQAK (UniProt O43615) | 0.188 |
| TES_Q9UGI8_412_FMPVEGMVFCSVECK (UniProt Q9UGI8) | 0.0181 |
| THTPA_Q9BU02_66_CPGAAGVLGPHTEYK (UniProt Q9BU02) | -0.196 |
| TIGAR_Q9NQ88_256_EVKPTVQCICMNLQDHLNGLTETR (UniProt Q9NQ88) | 0.0753 |
| TDRD7_Q8NHU6_103_QVNCQMR (UniProt Q8NHU6) | -0.0111 |
| TIMM50_Q3ZCQ8_236_DISCLNRDPAR (UniProt Q3ZCQ8) | -0.129 |
| TELO2_Q9Y4R8_30_EAIHALSSSEDGGHIFCTLESLK (UniProt Q9Y4R8) | -0.175 |

| Target | probe-labelled cysteine peptide fold change |
| --- | --- |
| TIFA_Q96CG3_56_NSNICHYTFQDK (UniProt Q96CG3) | 0.118 |
| TFCP2_Q12800_453_IAQLFSISPCQISQIYK (UniProt Q12800) | 0.0577 |
| TKT_P29401_42_ISSIQATTAAGSGHPTSCCSAAEIMAVLFFHTMR (UniProt P29401) | -0.283 |
| TIMM9_Q9Y5J7_52_EVKPEETTCSEHCLQK (UniProt Q9Y5J7) | -0.0147 |
| THBD_P07204_175_ADGFLCEFHFPATCRPLAVEPGAAAAAVSITYGTPFAAR (UniProt P07204) | -0.191 |
| THEMIS2_Q5TEJ8_410_LSDQAGEDEEEECKEEAESPER (UniProt Q5TEJ8) | -0.0422 |
| TDP2_O95551_273_CGGLPNNIVDVWEFLGK (UniProt O95551) | 0.0122 |
| TCF20_Q9UGU0_1918_YHYPCAIDADCLLHEENFSVR (UniProt Q9UGU0) | -0.108 |
| TIMM17A_Q99595_17_IVDDCGGAFTMGTIGGGIFQAIK (UniProt Q99595) | -0.064 |
| THOP1_P52888_175_KLSLLCIDFNK (UniProt P52888) | -0.106 |
| TFIP11_Q9UBB9_383_VLEMVEECERR (UniProt Q9UBB9) | -0.066 |
| TGFBR1_P36897_347_NGTCCIADLGLAVR (UniProt P36897) | -0.0869 |
| THUMPD3_Q9BV44_2_CDIEEATNQLLDVNLHENQK (UniProt Q9BV44) | -0.137 |
| THOC2_Q8NI27_853_YITSCEMVMAPVHEAVVSLHVSK (UniProt Q8NI27) | -0.0259 |
| TLE4_Q04727_32_FTISESCDR (UniProt Q04727) | 0.195 |
| TLDC1_Q6P9B6_310_HVFGGFASCSWEVKPQFQGDNR (UniProt Q6P9B6) | 0.184 |
| THOP1_P52888_644_SCILRPGGSEDASAMLR (UniProt P52888) | -0.0855 |
| TEPSIN_Q96N21_463_RGPSSCAWSR (UniProt Q96N21) | -0.113 |
| TGS1_Q96RS0_28_ILCLCSR (UniProt Q96RS0) | 0.063 |
